Data published in PMC7224192, “MYC transcription activation mediated by OCT4 as a mechanism of resistance to 13-cisRA-mediated differentiation in neuroblastoma”.

The chains behind the UniProt entries cited, without tags or fusion partners.
UniProt Q01860: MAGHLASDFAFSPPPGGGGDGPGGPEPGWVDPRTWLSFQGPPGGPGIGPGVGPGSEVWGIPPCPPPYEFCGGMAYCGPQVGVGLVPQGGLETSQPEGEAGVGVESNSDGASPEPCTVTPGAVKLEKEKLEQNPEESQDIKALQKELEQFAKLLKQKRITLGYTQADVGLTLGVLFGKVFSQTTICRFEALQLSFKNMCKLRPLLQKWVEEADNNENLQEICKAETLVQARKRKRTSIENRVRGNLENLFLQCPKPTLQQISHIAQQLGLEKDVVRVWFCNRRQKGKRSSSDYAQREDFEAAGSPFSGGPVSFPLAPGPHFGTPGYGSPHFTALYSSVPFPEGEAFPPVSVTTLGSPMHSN
UniProt P49137: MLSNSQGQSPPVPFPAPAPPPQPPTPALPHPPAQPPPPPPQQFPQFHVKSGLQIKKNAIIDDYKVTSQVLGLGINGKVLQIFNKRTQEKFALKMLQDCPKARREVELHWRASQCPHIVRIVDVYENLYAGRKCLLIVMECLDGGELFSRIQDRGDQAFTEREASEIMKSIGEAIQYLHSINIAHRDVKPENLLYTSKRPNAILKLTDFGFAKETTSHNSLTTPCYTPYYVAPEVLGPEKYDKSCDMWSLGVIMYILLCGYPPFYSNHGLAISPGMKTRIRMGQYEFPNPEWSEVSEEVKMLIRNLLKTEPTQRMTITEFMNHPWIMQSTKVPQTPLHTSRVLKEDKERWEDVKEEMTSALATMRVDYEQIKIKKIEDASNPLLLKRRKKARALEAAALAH
UniProt P78527: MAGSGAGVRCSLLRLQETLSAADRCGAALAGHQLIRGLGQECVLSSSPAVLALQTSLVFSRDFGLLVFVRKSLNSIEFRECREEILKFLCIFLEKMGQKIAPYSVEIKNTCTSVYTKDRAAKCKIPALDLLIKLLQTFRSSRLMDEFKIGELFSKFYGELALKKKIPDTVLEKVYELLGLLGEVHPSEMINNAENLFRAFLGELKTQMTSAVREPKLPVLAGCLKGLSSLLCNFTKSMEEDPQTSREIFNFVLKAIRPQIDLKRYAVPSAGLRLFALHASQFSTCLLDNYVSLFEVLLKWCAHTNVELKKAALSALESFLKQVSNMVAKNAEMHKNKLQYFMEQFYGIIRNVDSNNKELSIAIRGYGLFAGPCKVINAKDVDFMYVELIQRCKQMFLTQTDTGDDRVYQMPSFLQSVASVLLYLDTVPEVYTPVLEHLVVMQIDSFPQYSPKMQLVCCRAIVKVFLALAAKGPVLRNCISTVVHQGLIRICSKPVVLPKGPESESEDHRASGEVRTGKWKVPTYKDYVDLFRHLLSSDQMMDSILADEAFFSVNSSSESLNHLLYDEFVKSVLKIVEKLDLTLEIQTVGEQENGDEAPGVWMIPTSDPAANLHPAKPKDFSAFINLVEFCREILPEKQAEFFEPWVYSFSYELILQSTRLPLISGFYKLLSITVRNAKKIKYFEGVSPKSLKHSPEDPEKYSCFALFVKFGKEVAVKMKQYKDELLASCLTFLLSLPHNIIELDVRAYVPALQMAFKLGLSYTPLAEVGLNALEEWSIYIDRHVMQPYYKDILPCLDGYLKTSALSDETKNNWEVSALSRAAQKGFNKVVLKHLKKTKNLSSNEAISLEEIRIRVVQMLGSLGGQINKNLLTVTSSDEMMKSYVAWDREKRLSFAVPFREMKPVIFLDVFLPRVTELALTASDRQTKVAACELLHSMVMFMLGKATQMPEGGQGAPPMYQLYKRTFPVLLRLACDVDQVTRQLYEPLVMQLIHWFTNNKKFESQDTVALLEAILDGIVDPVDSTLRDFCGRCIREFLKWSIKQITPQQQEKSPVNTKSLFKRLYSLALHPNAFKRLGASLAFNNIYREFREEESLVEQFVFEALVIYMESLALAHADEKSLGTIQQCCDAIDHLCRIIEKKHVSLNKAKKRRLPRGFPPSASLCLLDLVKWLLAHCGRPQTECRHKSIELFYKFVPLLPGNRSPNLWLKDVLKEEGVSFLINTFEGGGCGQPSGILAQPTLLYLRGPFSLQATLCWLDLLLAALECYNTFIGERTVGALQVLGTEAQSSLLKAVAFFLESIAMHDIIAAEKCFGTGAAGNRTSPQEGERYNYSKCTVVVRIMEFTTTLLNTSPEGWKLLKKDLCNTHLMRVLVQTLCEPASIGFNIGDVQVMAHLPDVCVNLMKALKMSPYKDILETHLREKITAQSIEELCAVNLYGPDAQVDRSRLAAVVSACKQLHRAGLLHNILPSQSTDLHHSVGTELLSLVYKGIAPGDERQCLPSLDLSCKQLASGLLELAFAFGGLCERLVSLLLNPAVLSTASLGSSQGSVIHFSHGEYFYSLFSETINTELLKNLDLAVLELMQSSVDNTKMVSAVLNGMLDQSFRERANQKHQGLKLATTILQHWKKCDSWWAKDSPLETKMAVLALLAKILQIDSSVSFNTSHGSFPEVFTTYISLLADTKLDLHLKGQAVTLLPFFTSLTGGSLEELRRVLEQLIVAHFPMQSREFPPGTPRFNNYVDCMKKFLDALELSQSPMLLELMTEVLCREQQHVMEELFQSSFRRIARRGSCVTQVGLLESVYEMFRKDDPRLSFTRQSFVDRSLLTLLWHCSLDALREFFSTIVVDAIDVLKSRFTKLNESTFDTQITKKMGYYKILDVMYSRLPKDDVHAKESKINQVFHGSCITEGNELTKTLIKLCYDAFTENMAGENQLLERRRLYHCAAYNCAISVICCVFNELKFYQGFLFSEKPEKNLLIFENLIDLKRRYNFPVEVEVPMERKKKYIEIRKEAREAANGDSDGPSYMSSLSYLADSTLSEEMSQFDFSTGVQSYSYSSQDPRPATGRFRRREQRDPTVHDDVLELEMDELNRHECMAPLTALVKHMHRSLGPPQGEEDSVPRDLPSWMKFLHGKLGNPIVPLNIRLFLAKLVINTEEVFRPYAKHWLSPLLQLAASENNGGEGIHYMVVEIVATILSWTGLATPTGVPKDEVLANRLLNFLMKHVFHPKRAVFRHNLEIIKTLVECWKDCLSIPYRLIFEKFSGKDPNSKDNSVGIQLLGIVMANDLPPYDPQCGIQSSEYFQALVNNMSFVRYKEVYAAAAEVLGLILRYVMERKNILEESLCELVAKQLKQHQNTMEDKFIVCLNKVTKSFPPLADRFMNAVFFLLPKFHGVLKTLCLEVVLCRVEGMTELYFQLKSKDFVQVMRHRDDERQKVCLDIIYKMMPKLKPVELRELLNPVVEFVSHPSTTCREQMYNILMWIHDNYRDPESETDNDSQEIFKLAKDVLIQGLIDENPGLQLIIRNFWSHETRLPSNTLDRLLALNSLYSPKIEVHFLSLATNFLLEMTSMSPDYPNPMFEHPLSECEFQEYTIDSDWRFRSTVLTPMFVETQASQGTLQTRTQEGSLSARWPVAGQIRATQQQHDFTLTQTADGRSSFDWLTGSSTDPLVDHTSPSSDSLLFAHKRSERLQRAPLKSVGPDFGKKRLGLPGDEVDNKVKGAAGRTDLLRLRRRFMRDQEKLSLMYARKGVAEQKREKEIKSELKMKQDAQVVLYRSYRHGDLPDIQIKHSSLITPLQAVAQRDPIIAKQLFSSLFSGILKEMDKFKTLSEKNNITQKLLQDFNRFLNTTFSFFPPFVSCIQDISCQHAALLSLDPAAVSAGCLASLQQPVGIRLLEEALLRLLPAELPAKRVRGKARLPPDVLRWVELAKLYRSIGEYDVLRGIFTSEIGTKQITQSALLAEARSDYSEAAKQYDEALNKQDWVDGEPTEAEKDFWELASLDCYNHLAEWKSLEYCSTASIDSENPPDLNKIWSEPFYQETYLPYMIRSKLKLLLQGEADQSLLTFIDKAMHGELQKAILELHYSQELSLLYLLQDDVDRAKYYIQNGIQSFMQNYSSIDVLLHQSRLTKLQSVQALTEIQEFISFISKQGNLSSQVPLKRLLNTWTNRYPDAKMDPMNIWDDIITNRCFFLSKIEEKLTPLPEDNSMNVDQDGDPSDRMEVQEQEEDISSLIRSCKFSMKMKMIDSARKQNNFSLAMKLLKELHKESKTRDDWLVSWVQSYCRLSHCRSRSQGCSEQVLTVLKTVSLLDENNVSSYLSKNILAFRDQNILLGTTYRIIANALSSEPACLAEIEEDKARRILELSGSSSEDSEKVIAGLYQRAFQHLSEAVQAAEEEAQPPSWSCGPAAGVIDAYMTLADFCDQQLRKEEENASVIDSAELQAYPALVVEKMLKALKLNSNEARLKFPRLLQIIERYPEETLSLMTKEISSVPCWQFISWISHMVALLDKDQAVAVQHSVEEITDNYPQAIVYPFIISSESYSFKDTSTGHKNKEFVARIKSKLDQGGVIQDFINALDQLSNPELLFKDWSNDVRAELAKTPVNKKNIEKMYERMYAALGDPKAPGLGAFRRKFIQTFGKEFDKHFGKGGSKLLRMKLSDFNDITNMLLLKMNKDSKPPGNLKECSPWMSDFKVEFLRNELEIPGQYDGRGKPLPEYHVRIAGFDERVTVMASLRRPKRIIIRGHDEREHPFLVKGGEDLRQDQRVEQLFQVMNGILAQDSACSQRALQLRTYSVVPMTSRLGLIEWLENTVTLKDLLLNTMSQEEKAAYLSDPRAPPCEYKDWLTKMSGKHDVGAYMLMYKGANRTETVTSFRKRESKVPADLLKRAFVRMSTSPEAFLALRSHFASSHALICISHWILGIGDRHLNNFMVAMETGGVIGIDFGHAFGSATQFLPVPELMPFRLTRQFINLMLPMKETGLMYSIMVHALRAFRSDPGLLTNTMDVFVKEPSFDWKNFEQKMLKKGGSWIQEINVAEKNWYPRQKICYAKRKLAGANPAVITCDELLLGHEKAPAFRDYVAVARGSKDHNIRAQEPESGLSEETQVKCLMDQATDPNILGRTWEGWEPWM

Target: mycDDK-tagged wild-type OCT4 (POU5F1) (human) (UniProt Q01860)
Experiment: affinity purification with mass spectrometry; anti-FLAG (EZview Red) IP of OCT4-mycDDK from cytosolic and nuclear fractions of LHN-R cells; SDS-PAGE, entire lanes analysed by mass spectrometry for protein ID

Substance | binding
MAPKAPK2 (MK2), endogenous (from UniProt P49137 1-400) (enzyme) | binds
DNA-PKcs, endogenous (from UniProt P78527 1-4128) (enzyme) | binds

Results are given in words; binding and its absence hold for the method and conditions named. In cells and extracts the contact can be indirect. Here binding means that the protein was enriched with, or labelled near, the bait; the list need not be complete.
